Experimental data: patent US20140370521A1, “IDENTIFICATION OF TWO NOVEL BIOMARKERS FOR NIEMANN-PICK DISEASE TYPE C” (The USA , as Represented by the Secretary, Department of …, priority 2011, published 2014)

Tested on: Npc1-/- mouse liver
Test: Liver gene expression microarray, Npc1-/- versus control mice (Affymetrix Mouse GeneChip 1.0 ST)
Settings: negative = lower in Npc1−/−
[1] = head prints "weeks" (column between 7 weeks and 11 weeks)

Molecule	FC (fold-change of expression between Npc1−/− and control mice) (3 weeks of age)	FC (fold-change of expression between Npc1−/− and control mice) (5 weeks of age)	FC (fold-change of expression between Npc1−/− and control mice) (7 weeks of age)	FC (fold-change of expression between Npc1−/− and control mice) (11 weeks of age)	FC (fold-change of expression between Npc1−/− and control mice) [1]	FC (fold-change of expression between Npc1−/− and control mice) (1 week of age)
Frzb (protein, UniProt P97401 33-323, looked up) Secreted frizzled-related …: AACEPVRIPLCKSLPWNMTKMPNHLHHSTQANAILAMEQFEGLLGTHCSPDLLFFLCAMYAPICTIDFQHEPIKPCKSVCERARQGCEPILIKYRHSWPESLACDELPVYDRGVCISPEAIVTADGADFPMDSSTGHCRGASSERCKCKPVRATQKTYFRNNYNYVIRAKVKEVKMKCHDVTAVVEVKEILKASLVNIPRDTVNLYTTSGCLCPPLTVNEEYVIMGYEDEERSRLLLVEGSIAEKWKDRLGKKVKRWDMKLRHLGLGKTDASDSTQNQKSGRNSNPRPARS	1.31	1.51	1.90	2.27	2.19	
Il18bp (protein, UniProt Q9Z0M9 29-193, looked up) Interleukin-18-binding protein: TSAPQTTATVLTGSSKDPCSSWSPAVPTKQYPALDVIWPEKEVPLNGTLTLSCTACSRFPYFSILYWLGNGSFIEHLPGRLKEGHTSREHRNTSTWLHRALVLEELSPTLRSTNFSCLFVDPGQVAQYHIILAQLWDGLKTAPSPSQETLSSHSPVSRSAGPGVA	1.43	1.39	1.71	2.19	1.82	
Il1b (protein, UniProt P10749 118-269, looked up) Interleukin-1 beta: VPIRQLHYRLRDEQQKSLVLSDPYELKALHLNGQNINQQVIFSMSFVQGEPSNDKIPVALGLKGKNLYLSCVMKDGTPTLQLESVDPKQYPKKKMEKRFVFNKIEVKSKVEFESAEFPNWYISTSQAEHKPVFLGNNSGQDIIDFTMESVSS		−1.32	−1.41	−1.46	−1.49	−1.65
Il7r (protein, UniProt P16872 21-459, looked up) Interleukin-7 receptor …: ESGNAQDGDLEDADADDHSFWCHSQLEVDGSQHLLTCAFNDSDINTANLEFQICGALLRVKCLTLNKLQDIYFIKTSEFLLIGSSNICVKLGQKNLTCKNMAINTIVKAEAPSDLKVVYRKEANDFLVTFNAPHLKKKYLKKVKHDVAYRPARGESNWTHVSLFHTRTTIPQRKLRPKAMYEIKVRSIPHNDYFKGFWSEWSPSSTFETPEPKNQGGWDPVLPSVTILSLFSVFLLVILAHVLWKKRIKPVVWPSLPDHKKTLEQLCKKPKTSLNVSFNPESFLDCQIHEVKGVEARDEVESFLPNDLPAQPEELETQGHRAAVHSANRSPETSVSPPETVRRESPLRCLARNLSTCNAPPLLSSRSPDYRDGDRNRPPVYQDLLPNSGNTNVPVPVPQPLPFQSGILIPVSQRQPISTSSVLNQEEAYVTMSSFYQNK	1.77	3.49	10.75	19.61	18.29	
Lgmn (protein, UniProt O89017 18-325, looked up) Legumain: VPVGVDDPEDGGKHWVVIVAGSNGWYNYRHQADACHAYQIIHRNGIPDEQIIVMMYDDIANSEENPTPGVVINRPNGTDVYKGVLKDYTGEDVTPENFLAVLRGDAEAVKGKGSGKVLKSGPRDHVFIYFTDHGATGILVFPNDDLHVKDLNKTIRYMYEHKMYQKMVFYIEACESGSMMNHLPDDINVYATTAANPKESSYACYYDEERGTYLGDWYSVNWMEDSDVEDLTKETLHKQYHLVKSHTNTSHVMQYGNKSISTMKVMQFQGMKHRASSPISLPPVTHLDLTPSPDVPLTILKRKLLRTN	1.74	2.06	3.07	4.82	3.89	
Lifr (protein, UniProt P42703 44-1092, looked up) Leukemia inhibitory factor …: LKRGVQDLKCTTNNMRVWDCTWPAPLGVSPGTVKDICIKDRFHSCHPLETTNVKIPALSPGDHEVTINYLNGFQSKFTLNEKDVSLIPETPEILDLSADFFTSSLLLKWNDRGSALPHPSNATWEIKVLQNPRTEPVALVLLNTMLSGKDTVQHWNWTSDLPLQCATHSVSIRWHIDSPHFSGYKEWSDWSPLKNISWIRNTETNVFPQDKVVLAGSNMTICCMSPTKVLSGQIGNTLRPLIHLYGQTVAIHILNIPVSENSGTNIIFITDDDVYGTVVFAGYPPDVPQKLSCETHDLKEIICSWNPGRITGLVGPRNTEYTLFESISGKSAVFHRIEGLTNETYRLGVQMHPGQEIHNFTLTGRNPLGQAQSAVVINVTERVAPHDPTSLKVKDINSTVVTFSWYLPGNFTKINLLCQIEICKANSKKEVRNATIRGAEDSTYHVAVDKLNPYTAYTFRVRCSSKTFWKWSRWSDEKRHLTTEATPSKGPDTWREWSSDGKNLIVYWKPLPINEANGKILSYNVSCSLNEETQSVLEIFDPQHRAEIQLSKNDYIISVVARNSAGSSPPSKIASMEIPNDDITVEQAVGLGNRIFLTWRHDPNMTCDYVIKWCNSSRSEPCLLDWRKVPSNSTETVIESDQFQPGVRYNFYLYGCTNQGYQLLRSIIGYVEELAPIVAPNFTVEDTSADSILVKWDDIPVEELRGFLRGYLFYFQKGERDTPKTRSLEPHHSDIKLKNITDISQKTLRIADLQGKTSYHLVLRAYTHGGLGPEKSMFVVTKENSVGLIIAILIPVAVAVIVGVVTSILCYRKREWIKETFYPDIPNPENCKALQFQKSVCEGSNALKTLEMNPCTPNNVEVLESRSIVPKIEDTEIISPVAERPGERSEVDPENHVVVSYCPPIIEEEITNPAADEVGGASQVVYIDVQSMYQPQAKAEEEQDVDPVVVAGYKPQMRLPISPAVEDTAAEDEEGKTAGYRPQANVNTWNLVSPDSPRSTDSNNEVVSFGSPCSINSRQFLIPPKDEDSPKSNGGGWSFTNFFQNKPND	−1.36	−2.46	−2.37	−3.29	−2.57	
Ltf (protein, UniProt P08071 20-707, looked up) Lactotransferrin: KATTVQWCAVSNSEEEKCLRWQNEMRKVGGPPLSCVKKSSTRQCIQAIVTNRADAMTLDGGTMFDAGKPPYKLRPVAAEVYGTKEQPRTHYYAVAVVKNSSNFHLNQLQGLRSCHTGIGRSAGWKIPIGTLRPYLNWNGPPASLEEAVSKFFSKSCVPGAQKDRFPNLCSSCAGTGANKCASSPEEPYSGYAGALRCLRDNAGDVAFTRGSTVFEELPNKAERDQYKLLCPDNTWKPVTEYKECHLAQVPSHAVVSRSTNDKEEAIWELLRQSQEKFGKKQASGFQLFASPSGQKDLLFKESAIGFVRVPQKVDVGLYLTFSYTTSIQNLNKKQQDVIASKARVTWCAVGSEEKRKCDQWNRASRGRVTCISFPTTEDCIVAIMKGDADAMSLDGGYIYTAGKCGLVPVLAENQKSSKSNGLDCVNRPVEGYLAVAAVRREDAGFTWSSLRGKKSCHTAVDRTAGWNIPMGLLANQTRSCKFNEFFSQSCAPGADPKSNLCALCIGDEKGENKCAPNSKERYQGYTGALRCLAEKAGNVAFLKDSTVLQNTDGKNTEEWARNLKLKDFELLCLDDTRKPVTEAKNCHLAIAPNHAVVSRTDKVEVLQQVLLDQQVQFGRNGQRCPGEFCLFQSKTKNLLFNDNTECLAKIPGKTTSEKYLGKEYVIATERLKQCSSSPLLEACAFLTQ		1.42	1.99	1.67	1.75	−1.36

The expression values are mRNA levels of the gene; the protein chain is shown to identify it.
